Measurements taken from PubChem BioAssay AID540256 (National Center for Advancing Translational Sciences (NCATS), 2011).
About 3,700 (1.2%) of roughly 300,000 compounds were called active. Inconclusive results, whose numbers are uncertain, are shown with a selection of clear calls. Calls come from the whole dose curve; tested in HEK293 cells. Potencies beside an inconclusive call are fits to weak or partial responses and may not hold up.

Assay: qHTS for Inhibitors of binding or entry into cells for Lassa Virus; note: nearly all actives have a fitted effect of over 50% in size
Conditions: Lassa virus pseudotype entry inhibition, cell reporter; activity change, negative = inhibition: at 37.9 µM (top of the series) unless noted
% is set by controls: 0 for no effect and ±100 for the full control effect; potency is the fitted concentration of half-maximal effect.

SMILES	Potency	activity change, negative = inhibition
COc1cc(Cl)c(C)cc1NC(=O)CCCn1c(=O)oc2ccccc21	inconclusive: 22.4 µM [activator, single point]	
Cc1ccc(NS(=O)(=O)c2cccc(C(=O)NCC3CCCO3)c2)cc1 (stereo unspecified)	active: 10 µM	
O=C(NCc1ccccc1)c1cccc(COc2cc(Cl)ccc2Cl)c1	inconclusive: 10 µM [inhibitor, partial curve, poor fit]	
CCCCN(C)C(=O)CC(NS(=O)(=O)c1ccc(NC(C)=O)cc1)C(C)C (stereo unspecified)	inconclusive: 6.31 µM [inhibitor, partial curve, poor fit]	
CCNC(=O)CN(c1ccc(F)cc1)S(=O)(=O)c1ccc2c(c1)OCCO2	inconclusive: 3.98 µM [inhibitor, full curve, poor fit]	
O=C(Nc1ccc(F)cc1F)c1noc2c1CCc1ccccc1-2	inconclusive: 2.82 µM [activator, single point]	
CCCNC(=O)OC[C@H]1O[C@H](CCO/N=C/[C@@H](OC)[C@H](C)/C=C/CC(=O)OC)C=C[C@@H]1Oc1ccc(OC)cc1	inconclusive: 16.4 µM [inhibitor, single point]	
CC(=O)Nc1ccc(NC(=O)c2cc(C3CC3)nc3c2cnn3C(C)C)cc1		inconclusive: 8.63% [activator]
COc1nc(Nc2ccc([N+](=O)[O-])cc2)nc(NC2CCCCC2)n1	inconclusive: 14.1 µM [inhibitor, partial curve, poor fit]	
CCOc1nccc2c1nc(-c1nonc1N)n2CC	inconclusive: 4.99 µM [inhibitor, partial curve, poor fit]	
Cc1ccc(-n2c(=O)c3ccc(C(=O)NCc4ccco4)cc3n(Cc3cccc(Cl)c3)c2=O)cc1		inactive: 7.47% [at 46.1 µM]
CC(C)c1cnc2c(c1SCc1cccc(C(F)(F)F)c1)c(=O)n(C)c(=O)n2C		inactive: 15.9% [at 46.1 µM]
COc1ccc(NCc2nnc(SCC(=O)Nc3ccccc3)n2C)cc1	inconclusive: 14.1 µM [inhibitor, single point]	
CCC(C)(C)C1CCc2[nH]nc(C(=O)NN)c2C1 (stereo unspecified)		inactive: 18.5%
Oc1ccccc1/C=N/n1c(COc2ccccc2)n[nH]c1=S	inconclusive: 0.501 µM [inhibitor, full curve, poor fit]	
COc1ccc(C2=NN3C(C2)c2ccccc2OC32C(=O)N(C)c3ccccc32)cc1 (stereo unspecified)	inconclusive: 15.8 µM [inhibitor, single point]	
COC(=O)c1ccccc1NC(=O)Nc1cc(C(C)(C)C)on1	inconclusive: 20 µM [inhibitor, single point]	
O=C(CSc1nnc(COc2cccc3ccccc23)o1)N1c2ccccc2CCc2ccccc21	inconclusive: 28.2 µM [inhibitor, single point]	
CCOCc1c(C(=O)OCC(=O)/C(C#N)=C(\C)N)oc2ccccc12	inconclusive: 1 µM [inhibitor, full curve, poor fit]	
CCN1CCN(c2cc(C)c3cc(NC(=S)N4CC(C)CC(C)C4)ccc3n2)CC1 (stereo unspecified)		inactive: -27.1%
CNC(=O)c1cncc(C=Cc2c(C)cccc2C)c1		inactive: 17.3%
COc1nnc(-c2ccc(N3CCOCC3)c(NC(=O)c3ccco3)c2)c2ccccc12	inconclusive: 14.1 µM [inhibitor, partial curve, poor fit]	

SMILES	Potency	activity change, negative = inhibition
Cc1ccc(-n2sc3ccccc3c2=O)cc1	inconclusive: 14.1 µM [inhibitor, single point]	
Cc1ncc(NS(=O)(=O)c2ccc(N)cc2)nc1C		inactive: 7.59%
O=C(NCC#CCOCc1ccccc1)c1ccccc1		inactive: -4.13%
Cc1cccc(NC(=O)Cn2cc(C(=O)c3ccco3)c3ccccc32)c1C		inactive: -24.7% [at 46.1 µM]
COc1ccc(CN2C(=O)C(NC(=O)c3ccccc3C)(C(F)(F)F)N=C2c2ccccc2)cc1 (stereo unspecified)	inconclusive: 11.2 µM [inhibitor, partial curve, poor fit]	
O=[N+]([O-])c1ccc(N2CCCCCC2)c2nonc12	inconclusive: 3.98 µM [inhibitor, full curve, poor fit]	
COc1cccc(NC(=O)CN(C)C(=O)CSC(=S)N2CCCC2)c1	inconclusive: 0.0891 µM [inhibitor, full curve, poor fit]	
CCC[N+]1(CC#CC(O)(c2ccccc2)C2CCCCC2)CCCCC1 (stereo unspecified)		inactive: 9.93%
Cn1c(=O)n(C)c2cc(NC(=O)c3cccc([N+](=O)[O-])c3)c(Br)cc21		inconclusive: 17% [activator]
Cc1ccc(S(=O)(=O)N(C)c2ccc(OCC(=O)N3CCCC(C(F)(F)F)C3)cc2)cc1 (stereo unspecified)	inconclusive: 10 µM [inhibitor, partial curve, poor fit]	
COc1cc2c(cc1OC)n(CC(=O)c1ccc(F)cc1)c(=O)n1nc(CCn3nc(C)cc3C)nc21	inconclusive: 5.62 µM [inhibitor, single point]	
NOCC(=O)O		inactive: 20.9%
Cc1ccc(-c2noc(-c3ccoc3C)n2)cc1	inconclusive: 31.6 µM [activator, single point]	
CCS(=O)(=O)N1CCC(C(=O)NC2CCCCCCC2)CC1	inconclusive: 20.6 µM [activator, single point]	
COc1ccc2oc(=O)cc(CN3CCN(c4ccccc4F)CC3)c2c1	inconclusive: 35.5 µM [inhibitor, single point]	
Cc1cc(C)c(NC(=S)NCCCSC2CCCCC2)c(C)c1	inconclusive: 35.5 µM [inhibitor, single point]	
Cc1ccccc1CC(=O)Nc1cc(C(C)(C)C)on1		inactive: 20.8% [at 46.1 µM]
CCCC(=O)N1c2nc(C(C)C)nn2C2(CCCCC2)[C@@H]2CCCC[C@@H]21		inactive: 18.8% [at 46.1 µM]
CCn1c(COc2cccc(C)c2)nnc1SCC(=O)NC1CCCC1	inconclusive: 1.26 µM [inhibitor, single point]	
COc1cccc(NS(=O)(=O)c2ccc3[nH]cc(C(=O)N(C)C4CCCCC4)c(=O)c3c2)c1		inactive: 15.9% [at 46.1 µM]
CCCCc1nn2c(=O)cc(COC(=O)c3ccccc3NC(=O)c3ccccc3OC)nc2s1		inactive: 15.5% [at 46.1 µM]
Clc1ccc(OCCSc2ncccn2)c2ccccc12		inactive: 22%

Individual results from the results shown.
Value of COc1cccc(NC(=O)CN(C)C(=O)CSC(=S)N2CCCC2)c1 under Potency: inconclusive: 0.0891 µM [inhibitor, full curve, poor fit]
Value of Cc1ccc(S(=O)(=O)N(C)c2ccc(OCC(=O)N3CCCC(C(F)(F)F)C3)cc2)cc1 (stereo unspecified) under Potency: inconclusive: 10 µM [inhibitor, partial curve, poor fit]

Later entries.

SMILES	Potency	activity change, negative = inhibition
COC(=O)[C@@H]1[C@@H](C(=O)OC)C2(c3ccccc3-c3ccccc32)N(c2ccc(Cl)cc2)N1C#N	inconclusive: 35.5 µM [inhibitor, single point]	
Cc1ccc(C)c(NC(=O)Cn2c(=O)n(CCC(=O)NCc3ccc4c(c3)OCO4)c(=O)c3ccccc32)c1		inactive: -1.73% [at 46.1 µM]
CCCN1CCCc2cc(CN(CCCN3CCOCC3)C(=O)Nc3ccc(CC)cc3)ccc21	inconclusive: 0.562 µM [inhibitor, full curve, poor fit]	
CCOC(=O)C1CCCN(C(=O)c2ccc3c(c2)N(Cc2ccccc2)C(=O)c2ccccc2S3=O)C1 (stereo unspecified)	inconclusive: 5.62 µM [inhibitor, partial curve]	
NC(=O)c1cccnc1Nc1ccccc1F		inactive: 20.9%
COC(=O)c1ccccc1NC(=O)/C=C/c1ccco1	inconclusive: 17.8 µM [activator, partial curve, poor fit]	
Cc1ccc(OCC(=O)Nc2ccc3nn(-c4ccc(Cl)cc4)nc3c2)cc1	inconclusive: 7.08 µM [activator, partial curve, poor fit]	
CCSc1nnc(-c2ccc(C)cc2)c2ccccc12	inconclusive: 35.5 µM [inhibitor, single point]	
CCOC(=O)c1cccc(Nc2ccc3cc(S(=O)(=O)N4CCCCC4)ccc3n2)c1	inconclusive: 35.5 µM [inhibitor, single point]	
Cc1ccc(C)c(S(=O)(=O)N2CCC(c3nc4c(nnn4Cc4ccc(F)cc4)c(=O)[nH]3)CC2)c1	inconclusive: 22.4 µM [inhibitor, single point]	
CN(C)S(=O)(=O)c1cccc2nsnc12	inconclusive: 6.51 µM [activator, single point]	
CC(C)CNC(=O)c1ccc(NC(=O)c2cccs2)cc1	inconclusive: 4.47 µM [activator, single point]	
CCOc1ccc(-n2c(-c3ccc(OC)cc3)c[n+]3c2CCCCC3)cc1	inconclusive: 7.08 µM [inhibitor, full curve, poor fit]	
O=C(NN1C(=O)C2C3CCC(O3)C2C1=O)c1ccc(Br)o1 (stereo unspecified)		inactive: 4.09%
COc1ccc2c(c1)c(=O)oc1c(C)c(OCC(=O)N3CCc4ccccc4C3)ccc12	inconclusive: 35.5 µM [inhibitor, single point]	
Cc1cc(Br)ccc1NC(=O)CN(C)C(=O)CSCc1ccccc1	inconclusive: 1.26 µM [inhibitor, single point]	
O=C(CSc1nc2c([nH]c3ccccc32)c(=O)n1-c1ccccc1)N1CCCC1	inconclusive: 35.5 µM [inhibitor, partial curve, poor fit]	
CC(NC(=O)CCc1nnc(-c2ccc(-c3ccccc3)cc2)o1)c1nccs1 (stereo unspecified)	inconclusive: 20 µM [inhibitor, partial curve, poor fit]	
COc1ccc(S(=O)(=O)c2c(SC)nn(Cc3ccccc3C)c2NC(C)=O)cc1	inconclusive: 3.55 µM [inhibitor, single point]	
O=C(Nc1ccc(F)c([N+](=O)[O-])c1)c1ccc2c(c1)OCCO2	inconclusive: 35.5 µM [inhibitor, single point]	
CCOC(=O)N1CCN(C(=O)c2ccc(Cn3c(=S)[nH]c4cc5c(cc4c3=O)OCO5)cc2)CC1	inconclusive: 23.1 µM [inhibitor, single point]	
Cn1nc(C(=O)N2CCN(c3ccccc3)CC2)c2c1-c1ccccc1S(=O)(=O)C2		inactive: 19.9% [at 46.1 µM]
